# Measured values as given in PMC10893521, “Influence of Desialylation on the Drug Binding Affinity of Human Alpha-1-Acid Glycoprotein Assessed by Microscale Thermophoresis” (Pharmaceutics, 2024).
# How the values were obtained:
# [1] = biological target: T1, Native human AAG (alpha-1-acid glycoprotein, orosomucoid); assay: microscale thermophoresis, RED-NHS labelled protein, […] fit; format: binding; conditions: 25 mM sodium phosphate pH 7.4, 0.05% Tween 20, 5% DMSO, room temperature, 20 nM AAG
# T1 construct: gene ORM1; native human plasma protein, 183 residues, two cystine bridges, five N-glycans, fully sialylated (IS 270)
# Desialylated human AAG = biological target: T2, Desialylated human AAG; assay: as above; format: binding; conditions: 25 mM sodium phosphate pH 7.4, 0.05% Tween 20, 5% DMSO, room temperature, 20 nM AAG
# T2 construct: gene ORM1
structure (smiles),measurement,setting,value
CCN(CC)CC(=O)Nc1c(C)cccc1C [lidocaine],Kd,[1],487 µM
same,Kd,Desialylated human AAG,898 µM
